These are literature values, as cited in patent US10899732B2, “Substituted benzamides useful as sodium channel blockers” (GENENTECH, INC., priority 2015, dated 2021).

The structures appear in SMILES notation.

The conditions of the data set: administered topically; cited from earlier work.

As to `CCN(CC)CC(=O)Nc1c(C)cccc1C` [lidocaine], the plasma concentrations result was “about 1 μM”.
